Assay results: publication PMC4858382
These are yes or no findings as the source states them, for the method shown. Binding seen in cells or lysates may run through a third protein. Where a sequence is shown, tags or fusion partners need not be part of it.

By UniProt entry, the sequences of proteins in these tests, tags left out.
UniProt Q9P209: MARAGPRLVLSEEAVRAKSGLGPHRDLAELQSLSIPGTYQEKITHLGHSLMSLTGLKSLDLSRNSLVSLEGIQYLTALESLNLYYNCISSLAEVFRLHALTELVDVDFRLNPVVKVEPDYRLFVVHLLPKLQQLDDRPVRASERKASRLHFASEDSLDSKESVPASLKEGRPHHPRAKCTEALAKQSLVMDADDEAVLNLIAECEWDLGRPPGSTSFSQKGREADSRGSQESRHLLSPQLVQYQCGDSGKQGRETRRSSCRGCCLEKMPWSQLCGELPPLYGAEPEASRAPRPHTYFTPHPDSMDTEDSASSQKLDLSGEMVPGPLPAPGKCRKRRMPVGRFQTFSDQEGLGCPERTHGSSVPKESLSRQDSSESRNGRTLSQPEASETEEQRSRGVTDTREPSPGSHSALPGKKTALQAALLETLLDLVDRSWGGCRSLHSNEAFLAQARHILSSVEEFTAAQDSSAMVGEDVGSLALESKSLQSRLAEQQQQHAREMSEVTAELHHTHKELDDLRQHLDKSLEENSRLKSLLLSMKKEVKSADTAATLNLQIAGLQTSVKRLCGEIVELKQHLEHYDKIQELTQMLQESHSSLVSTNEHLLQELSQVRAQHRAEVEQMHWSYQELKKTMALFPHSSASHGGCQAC

T1: Myc-mPCM1 fragment containing residues 601–2025 (mouse) (UniProt Q9R0L6)
T1 sequence: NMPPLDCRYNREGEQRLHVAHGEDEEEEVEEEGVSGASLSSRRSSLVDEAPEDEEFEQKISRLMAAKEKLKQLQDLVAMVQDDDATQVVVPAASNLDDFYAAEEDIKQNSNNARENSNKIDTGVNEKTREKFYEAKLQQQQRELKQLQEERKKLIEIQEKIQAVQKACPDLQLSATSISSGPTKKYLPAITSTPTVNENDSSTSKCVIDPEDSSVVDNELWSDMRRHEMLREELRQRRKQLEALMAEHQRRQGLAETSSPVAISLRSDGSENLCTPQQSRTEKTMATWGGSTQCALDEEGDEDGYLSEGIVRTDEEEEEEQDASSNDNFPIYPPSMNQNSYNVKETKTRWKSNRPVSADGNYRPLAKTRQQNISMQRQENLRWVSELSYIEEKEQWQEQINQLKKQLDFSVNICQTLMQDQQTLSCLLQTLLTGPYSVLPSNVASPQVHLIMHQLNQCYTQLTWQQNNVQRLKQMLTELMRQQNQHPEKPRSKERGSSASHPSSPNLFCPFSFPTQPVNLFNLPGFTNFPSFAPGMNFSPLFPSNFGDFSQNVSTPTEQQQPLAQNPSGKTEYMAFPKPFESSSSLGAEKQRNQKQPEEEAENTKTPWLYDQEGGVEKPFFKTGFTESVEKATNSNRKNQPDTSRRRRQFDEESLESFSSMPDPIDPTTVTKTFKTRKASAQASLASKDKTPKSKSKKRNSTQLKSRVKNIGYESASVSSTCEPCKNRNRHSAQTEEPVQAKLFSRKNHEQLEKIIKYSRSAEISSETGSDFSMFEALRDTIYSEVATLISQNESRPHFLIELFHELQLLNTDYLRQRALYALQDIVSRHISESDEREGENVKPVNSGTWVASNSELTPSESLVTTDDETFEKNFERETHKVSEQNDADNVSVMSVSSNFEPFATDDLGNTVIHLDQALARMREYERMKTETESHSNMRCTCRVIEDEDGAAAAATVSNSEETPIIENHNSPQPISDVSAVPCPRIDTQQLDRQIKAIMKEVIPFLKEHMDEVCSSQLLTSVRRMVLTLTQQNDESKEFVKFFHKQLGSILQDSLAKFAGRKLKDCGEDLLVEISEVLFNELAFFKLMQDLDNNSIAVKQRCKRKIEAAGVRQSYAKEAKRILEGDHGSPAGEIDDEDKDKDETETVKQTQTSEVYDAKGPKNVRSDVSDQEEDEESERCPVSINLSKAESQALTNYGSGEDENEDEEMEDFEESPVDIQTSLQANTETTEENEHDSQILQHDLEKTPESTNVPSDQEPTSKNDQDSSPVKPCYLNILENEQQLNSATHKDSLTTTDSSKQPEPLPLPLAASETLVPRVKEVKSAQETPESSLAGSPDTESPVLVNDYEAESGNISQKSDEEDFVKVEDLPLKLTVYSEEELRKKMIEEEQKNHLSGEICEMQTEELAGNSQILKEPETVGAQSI

T2: Myc-mPCM1 fragment 1–800 (mouse) (UniProt Q9R0L6)
T2 sequence: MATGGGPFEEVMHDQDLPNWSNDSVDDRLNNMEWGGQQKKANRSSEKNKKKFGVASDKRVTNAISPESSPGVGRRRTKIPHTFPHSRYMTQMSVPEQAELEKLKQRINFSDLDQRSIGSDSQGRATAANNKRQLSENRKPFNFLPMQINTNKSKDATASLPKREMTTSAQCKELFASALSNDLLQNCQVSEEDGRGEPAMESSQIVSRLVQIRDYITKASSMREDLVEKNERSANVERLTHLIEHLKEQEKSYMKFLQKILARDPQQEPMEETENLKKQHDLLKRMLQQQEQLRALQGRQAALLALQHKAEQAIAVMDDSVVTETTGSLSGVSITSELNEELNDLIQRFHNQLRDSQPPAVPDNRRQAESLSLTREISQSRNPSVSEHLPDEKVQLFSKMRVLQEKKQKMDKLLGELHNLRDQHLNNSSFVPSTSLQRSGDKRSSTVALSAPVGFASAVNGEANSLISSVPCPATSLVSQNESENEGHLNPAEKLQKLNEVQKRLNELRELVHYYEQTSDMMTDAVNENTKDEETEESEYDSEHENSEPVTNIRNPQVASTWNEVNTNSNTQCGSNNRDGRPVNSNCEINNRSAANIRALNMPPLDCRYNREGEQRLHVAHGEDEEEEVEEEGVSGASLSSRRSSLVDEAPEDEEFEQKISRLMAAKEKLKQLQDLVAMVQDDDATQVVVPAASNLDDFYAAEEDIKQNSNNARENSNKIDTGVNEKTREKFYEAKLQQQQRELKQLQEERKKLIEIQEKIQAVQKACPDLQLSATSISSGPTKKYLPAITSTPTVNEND

B1: AZI1/Cep131, endogenous (protein, UniProt Q9UPN4 1-1083)
chain: MKGTRAIGSVPERSPAGVDLSLTGLPPPVSRRPGSAATTKPIVRSVSVVTGSEQKRKVLEATGPGGSQAINNLRRSNSTTQVSQPRSGSPRPTEPTDFLMLFEGSPSGKKRPASLSTAPSEKGATWNVLDDQPRGFTLPSNARSSSALDSPAGPRRKECTVALAPNFTANNRSNKGAVGNCVTTMVHNRYTPSERAPPLKSSNQTAPSLNNIIKAATCEGSESSGFGKLPKNVSSATHSARNNTGGSTGLPRRKEVTEEEAERFIHQVNQATVTIQRWYRHQVQRRGAGAARLEHLLQAKREEQRQRSGEGTLLDLHQQKEAARRKAREEKARQARRAAIQELQQKRALRAQKASTAERGPPENPRETRVPGMRQPAQELSPTPGGTAHQALKANNTGGGLPAAGPGDRCLPTSDSSPEPQQPPEDRTQDVLAQDAAGDNLEMMAPSRGSAKSRGPLEELLHTLQLLEKEPDVLPRPRTHHRGRYAWASEVTTEDDASSLTADNLEKFGKLSAFPEPPEDGTLLSEAKLQSIMSFLDEMEKSGQDQLDSQQEGWVPEAGPGPLELGSEVSTSVMRLKLEVEEKKQAMLLLQRALAQQRDLTARRVKETEKALSRQLQRQREHYEATIQRHLAFIDQLIEDKKVLSEKCEAVVAELKQEDQRCTERVAQAQAQHELEIKKLKELMSATEKARREKWISEKTKKIKEVTVRGLEPEIQKLIARHKQEVRRLKSLHEAELLQSDERASQRCLRQAEELREQLEREKEALGQQERERARQRFQQHLEQEQWALQQQRQRLYSEVAEERERLGQQAARQRAELEELRQQLEESSSALTRALRAEFEKGREEQERRHQMELNTLKQQLELERQAWEAGRTRKEEAWLLNREQELREEIRKGRDKEIELVIHRLEADMALAKEESEKAAESRIKRLRDKYEAELSELEQSERKLQERCSELKGQLGEAEGENLRLQGLVRQKERALEDAQAVNEQLSSERSNLAQVIRQEFEDRLAASEEETRQAKAELATLQARQQLELEEVHRRVKTALARKEEAVSSLRTQHEAAVKRADHLEELLEQHRRPTPSTK

How the values were obtained:
[1] = biological target: T1, Myc-mPCM1 fragment containing residues 601–2025 (mouse); assay: co-IP; HEK293T transfected with Myc-mPCM1 fragments for 48 h; lysates in ELB buffer (50 mM Hepes pH 7, 150 mM NaCl, 5 mM EDTA, 0.1% NP-40); anti-Myc antibody on Protein G Sepharose, 4°C; western blot for endogenous satellite proteins
[2] = biological target: T2, Myc-mPCM1 fragment 1–800 (mouse); assay: as above

| Molecule | binding [1] | binding [2] |
| --- | --- | --- |
| Cep72, endogenous (from UniProt Q9P209 1-647) | no binding |  |
| B1 |  | no binding |
